Values of other authors, collected in patent publication US20230340555A1, “PRODUCTION OF GLYCOSYLATED CANNABINOIDS” (WILLOW BIOSCIENCES, INC., priority 2020, published 2023).

Conditions: cited from earlier work

Compound: C=C(C)[C@@H]1CCC(C)=C[C@H]1c1c(O)cc(CCCCC)cc1O [CBD, cannabidiol]
- solubility in water: less than 0.1 mg/ml
